In this assay the target is Heat shock protein family A member 1A (HSPA1A) (rat (endogenous in spinal cord tissue)) (UniProt P0DMW0). The assay is described as follows: co-IP; rat spinal cord tissue lysed in RIPA buffer with PMSF, sonicated; protein A/G magnetic beads with the protein-antibody solution, 4 °C, 12 h; immunoblotting; precipitating antibody not stated.

Amino acid sequences for entries named in this document (tags omitted).
UniProt P0DMW0: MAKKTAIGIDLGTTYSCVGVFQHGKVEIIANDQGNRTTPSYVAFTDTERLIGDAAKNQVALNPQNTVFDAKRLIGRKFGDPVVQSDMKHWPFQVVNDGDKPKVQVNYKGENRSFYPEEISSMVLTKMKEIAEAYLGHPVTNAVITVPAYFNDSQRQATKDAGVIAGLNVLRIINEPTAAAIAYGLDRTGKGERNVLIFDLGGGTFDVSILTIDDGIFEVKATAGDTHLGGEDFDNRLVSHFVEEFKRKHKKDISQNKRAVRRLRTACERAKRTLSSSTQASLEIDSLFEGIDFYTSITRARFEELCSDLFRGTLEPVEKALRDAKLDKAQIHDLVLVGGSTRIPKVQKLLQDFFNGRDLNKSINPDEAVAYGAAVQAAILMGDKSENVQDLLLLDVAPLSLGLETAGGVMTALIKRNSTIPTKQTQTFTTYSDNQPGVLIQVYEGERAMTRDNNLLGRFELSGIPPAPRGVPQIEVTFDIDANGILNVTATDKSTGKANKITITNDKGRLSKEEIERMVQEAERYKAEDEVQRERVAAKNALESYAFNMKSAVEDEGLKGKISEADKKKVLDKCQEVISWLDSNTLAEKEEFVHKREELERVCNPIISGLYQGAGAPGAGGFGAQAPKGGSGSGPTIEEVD

No constants are given. Whether binding was seen depends on the method and setting. Binding seen in cells or lysates may run through a third protein. Some results given as binding are weak or reduced against the parent protein; the word gives no strength.

This note sets out measurements from publication PMC11809008.

B1: Dual specificity phosphatase 1 (DUSP1) (protein, UniProt Q64623 1-367)
chain: MVMEVGILDAGGLRALLRERAAQCLLLDCRSFFAFNAGHIVGSVNVRFSTIVRRRAKGAMGLEHIVPNTELRGRLLAGAYHAVVLLDERSAALDGAKRDGTLALAAGALCREARSTQVFFLQGGYEAFSASCPELCSKQSTPMGLSLPLSTSVPDSAESGCSSCSTPLYDQGGPVEILSFLYLGSAYHASRKDMLDALGITALINVSANCPNHFEGHYQYKSIPVEDNHKADISSWFNEAIDFIDSIKDAGGRVFVHCQAGISRSATICLAYLMRTNRVKLDEAFEFVKQRRSIISPNFSFMGQLLQFESQVLAPHCSAEAGSPAMAVLDRGTSTTTVFNFPVSIPVHPTNSALNYLQSPITTSPSC
For the molecule B1, the binding result was “binds”.
